This is an account of results in the supplement of paper PMC7858590.

Over roughly 3,800 compounds, “cell shape (eccentricity) Z-score vs DMSO control” has its median near 1.1; the lowest 2% begin near -4.7. The list shows a part of the results. Starred links: 1 amine or outer side, 2 acyl side, 3 side chain; linkers in the order of their positions; H or OH if unused. Positions of bridges follow the written chain, without caps; N, C: chain ends. Non-standard residues stand in square brackets, D forms with d. Residues, ends and D or L forms follow the SMILES beside them. Chains are numbered I, II in the order given. Actinocin(9to1) = Cc1c2oc3c(C)ccc(C(=O)[*:1])c3nc-2c(C(=O)[*:2])c(N)c1=O; NMeV = CN[C@H](C(=O)O)C(C)C; Sar = CNCC(=O)O

The assay deals with human monocyte-derived macrophages (M0). The assay is described as follows: cell shape (eccentricity) Z-score vs DMSO control; higher = more elongated, M2-like morphology. The conditions noted are these: 20 µM; 24 h; macrophage state: M0 (M-CSF). As to the method: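 Primary human monocyte-derived macrophages (M-CSF differentiated, pooled from 4 donors, 5000 cells/well in 384-well plates) were treated with each compound at 20 uM for 24 h, then fixed and stained with phalloidin/DAPI and imaged on an Opera Phenix (6 fields, about 1000 cells/well). Cell eccentricity was measured with CellProfiler, and a Z-score (t-test) was computed against 4 DMSO control wells in the same row. Negative values mean round (M1-like) cells and positive values mean elongated (M2-like) cells; the paper's hit cutoffs are Z <= -4 (M1) and Z >= 6 (M2). Scale: negative = round, M1-like.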
In the case of `COc1ccc2c(c1)c(CC(=O)N1CCOCC1)c(C)n2C(=O)c1ccc(Cl)cc1`, the “cell shape (Z-score)” value worked out at 3.89.

With `CCOC(=O)NC(=O)/C(C#N)=C/c1ccc(Cl)c(Cl)c1`, the “cell shape (Z-score)” value was 1.37. Next, `COc1cc2oc(-c3ccccc3)cc(=O)c2c(O)c1OC`: 3.73. Next, `CCN(CC)CCOC(=O)C(c1ccccc1)C1CCCCC1` (stereo not drawn): 1.15. On to `C[C@@H]1O[C@@H](O[C@@H]2[C@@H](O)[C@H](O[C@@H]3[C@@H](O)[C@@H](O)[C@H](O[C@H]4[C@H](OC(=O)[C@]56CCC(C)(C)C[C@H]5C5=CCC7[C@@]8(C)C[C@H](O)[C@H](O[C@@H]9O[C@H](C(=O)O)[C@@H](O)[C@H](O)[C@H]9O)[C@@](C)(CO)C8[C@H](O)C[C@@]7(C)[C@]5(C)C[C@H]6O)O[C@@H](CO)[C@@H]4O)O[C@H]3C)OC[C@H]2O)[C@H](O)[C@H](O)[C@H]1O` (stereo partly drawn), for which the “cell shape (Z-score)” value was -6.05.

Regarding `CC(=O)O[C@]1(C(C)=O)CCC2C3C=C(Cl)C4=CC(=O)[C@@H]5C[C@@H]5[C@]4(C)C3CC[C@@]21C` (stereo partly drawn), the “cell shape (Z-score)” value is 3.9. With `C[C@]12C=CC(=O)C=C1CC[C@@H]1[C@@H]2C(=O)C[C@@]2(C)[C@H]1CC[C@]2(O)C(=O)CO`, the “cell shape (Z-score)” value stood at 3.21.

For `COc1ccc(-c2ccc3c(N4CCOC[C@@H]4C)nc(N4CCOC[C@@H]4C)nc3n2)cc1CO`, the “cell shape (Z-score)” value is 0.746. On to `Cc1c2oc3c(C)ccc(C(=O)N[C@@H]4C(=O)N[C@H](C(C)C)C(=O)N5CCC[C@H]5C(=O)N(C)CC(=O)N(C)[C@@H](C(C)C)C(=O)O[C@@H]4C)c3nc-2c(C(=O)N[C@@H]2C(=O)N[C@H](C(C)C)C(=O)N3CCC[C@H]3C(=O)N(C)CC(=O)N(C)[C@@H](C(C)C)C(=O)O[C@@H]2C)c(N)c1=O` (I: T[dV]P[Sar][NMeV] / II: T[dV]P[Sar][NMeV]; ester I:1-I:C, II:1-II:C; linker I:N-II:N via Actinocin(9to1)), for which the “cell shape (Z-score)” value amounted to 3.73. The result for `C[C@@H]1CC[C@]2(C)[C@H](CC[C@@H](O)[C@]2(C)O)[C@@]1(C)CC(=O)c1ccoc1` reads 1.62. For `CC12CCC3C(=CCc4cc(O)ccc43)C1CCC2=O` (stereo not drawn), the “cell shape (Z-score)” value was 0.553. On to `C=CC(=O)Nc1cc2c(Nc3ccc(F)c(Cl)c3)ncnc2cc1OCCCN1CCOCC1`, for which the “cell shape (Z-score)” value amounted to 2.89. Take `CC(C)c1ccccc1S(=O)(=O)c1cc(N)c2ncccc2c1[N+](=O)[O-]`: the “cell shape (Z-score)” value came to 2.36. Consider `c1ccc2[nH]c(CCn3c4ccccc4c4ccccc43)nc2c1`, for which the “cell shape (Z-score)” value is -1.17. As for `CN1CCN(C2=Cc3ccccc3Oc3ccc(Cl)cc32)CC1`, the “cell shape (Z-score)” value was determined as 3.35. For `CCCn1c(=O)c2nc(-c3ccccc3)[nH]c2n(CCC)c1=O`, the “cell shape (Z-score)” value was -1.83. With `CCCCCCC(=O)OC1CC(C)(C)NC(C)(C)C1`, the “cell shape (Z-score)” value is 0.31. Consider `C[C@]12CCC3c4ccc(OC(=O)c5ccccc5)cc4CCC3C1CCC2O` (stereo partly drawn), for which the “cell shape (Z-score)” value was 1.95.
